# Assay results taken from PubChem BioAssay AID1671190 (National Center for Advancing Translational Sciences (NCATS), 2021).
# The chains behind the UniProt entries cited, without tags or fusion partners. Where a name states a change or a piece, a line headed by the entry shows the natural chain unless it says otherwise.
# UniProt P18054: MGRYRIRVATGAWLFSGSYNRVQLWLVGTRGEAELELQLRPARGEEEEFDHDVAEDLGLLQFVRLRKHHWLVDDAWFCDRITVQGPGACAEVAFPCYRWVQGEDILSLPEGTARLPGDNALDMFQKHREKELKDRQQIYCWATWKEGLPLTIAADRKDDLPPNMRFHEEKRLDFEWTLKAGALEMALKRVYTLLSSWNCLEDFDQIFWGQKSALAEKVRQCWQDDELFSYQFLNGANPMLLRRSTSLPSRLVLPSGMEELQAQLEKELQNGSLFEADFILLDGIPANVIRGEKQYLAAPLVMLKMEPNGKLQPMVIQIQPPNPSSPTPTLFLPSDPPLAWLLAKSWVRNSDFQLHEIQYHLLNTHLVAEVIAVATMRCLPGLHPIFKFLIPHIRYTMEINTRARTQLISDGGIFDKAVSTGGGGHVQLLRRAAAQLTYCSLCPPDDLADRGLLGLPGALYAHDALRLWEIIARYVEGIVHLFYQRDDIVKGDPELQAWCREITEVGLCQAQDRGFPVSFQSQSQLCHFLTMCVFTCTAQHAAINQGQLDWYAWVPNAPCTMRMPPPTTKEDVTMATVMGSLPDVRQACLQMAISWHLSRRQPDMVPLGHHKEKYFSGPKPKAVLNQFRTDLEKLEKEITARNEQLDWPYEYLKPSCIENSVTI
# The campaign covered roughly 580,000 compounds. About 6,100 (1.1%) were called active. The inconclusive results got no clear call from the source; some entries with a clear call stand among them for comparison. The call rests on the fitted dose curve; in most records, active means well fitted inhibition curve with a large enough effect; inconclusive means small, poorly fitted or top-dose-only effect, or another doubt; inactive means no such curve, though single readings can be large or run the other way. Potencies of inconclusive entries are doubtful fits and often do not repeat.
# Biological target: Polyunsaturated fatty acid lipoxygenase ALOX12 (Homo sapiens) (UniProt P18054)
# Assay: Primary qHTS assay for inhibitors of human arachidonate 12S-lipoxygenase (ALOX12): Round 2
# Settings: purified 12hLO, xylenol orange hydroperoxide absorbance; series mostly up to 108 µM
# Summary of the method: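 Purified human 12hLO at 150 nM in 25 mM Hepes, 0.01% Triton X-100, pH 7.0, preincubated 15 min at room temperature with compound. Reaction started with 40 uM arachidonic acid, 30 min at room temperature. Hydroperoxide measured by Fe-xylenol orange, 573/405 nm absorbance ratio.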
# Potency means the concentration at half of the fitted maximal effect.
row,Compound,Potency
1,Cn1c(=O)c2c(nc(Cl)n2CC(=O)NC2(C#N)CCCCC2)n(C)c1=O,"inconclusive: 112 µM [inhibitor, single point]"
2,CCCc1noc2c1C(c1cc(Br)ccc1F)C(C#N)=C(N)N2 (configuration not stated),"inconclusive: 35.5 µM [inhibitor, partial curve, poor fit]"
3,CCOC(=O)c1ccc(NC(=S)Nc2ccc(Cl)cn2)cc1,"inconclusive: 31.6 µM [inhibitor, partial curve, poor fit]"
4,COc1cc2c(cc1OC)-c1cc3nc4ccccc4nc3n1C(C)(C)C2,"inconclusive: 22.4 µM [inhibitor, single point]"
5,CCc1ccc(S(=O)(=O)Nc2ccc(C)c(NS(C)(=O)=O)c2)cc1,"inconclusive: 126 µM [inhibitor, single point]"
6,CCOc1ccc(C(=O)Nc2ccc(C(=O)OCc3cc(=O)n4c(C)csc4n3)cc2)cc1,"inconclusive: 39.8 µM [inhibitor, partial curve, poor fit]"
7,CC(C)CNC(=O)CN1CN(c2ccccc2)C2(CCN(C(=O)NC3CCCCC3)CC2)C1=O,"inconclusive: 28.2 µM [inhibitor, single point]"
8,CC(C)c1nc(CN(C)C(=O)N[C@H](C(=O)N[C@@H](Cc2ccccc2)C[C@H](O)[C@H](Cc2ccccc2)NC(=O)OCc2cncs2)C(C)C)cs1,inactive
9,OC(c1cccc(Cl)c1)c1nnc(Nc2cccc(Oc3ccccc3)c2)s1 (configuration not stated),"inconclusive: 50.1 µM [inhibitor, partial curve, poor fit]"
10,Cc1ccccc1OCCC(=O)OCC(=O)Nc1ccc(C)c(S(=O)(=O)N2CCCCC2)c1,"inconclusive: 44.7 µM [inhibitor, partial curve, poor fit]"
11,CCCCN(C(=O)c1ccc([N+](=O)[O-])s1)c1c(N)n(CC(C)C)c(=O)[nH]c1=O,"inconclusive: 44.7 µM [inhibitor, partial curve, poor fit]"
12,CC(C)c1ncncc1C(=O)NCCNc1cnccn1,inactive
13,O=C(CCn1c(=O)c2sccc2n(CC(=O)N2CCCC2)c1=O)Nc1ccc(F)cc1,inactive
14,COc1ccc(CNC(=O)C2(CC3CC(c4ccccc4)=NO3)CCN(C(=O)C3(C)CC3)CC2)cc1 (configuration not stated),inactive
15,CC1CCN(C(=O)c2cc(-c3ccc(Cl)c(Cl)c3)on2)CC1,"inconclusive: 28.2 µM [inhibitor, partial curve, poor fit]"
16,Cc1oc(-c2ccccc2)nc1CC(=O)NC(C)c1ccco1 (configuration not stated),inactive
17,Cc1cc(C)c(C(=O)OCC(=O)NC(=O)c2ccccc2)c(C)c1,inactive

# 2 entries drawn at random from those above:
row,Compound,Potency
2,CCCc1noc2c1C(c1cc(Br)ccc1F)C(C#N)=C(N)N2 (configuration not stated),"inconclusive: 35.5 µM [inhibitor, partial curve, poor fit]"
11,CCCCN(C(=O)c1ccc([N+](=O)[O-])s1)c1c(N)n(CC(C)C)c(=O)[nH]c1=O,"inconclusive: 44.7 µM [inhibitor, partial curve, poor fit]"
